The list does not hold the whole screen: it is rich in T/C values a quarter to a half above the control, in often repeated tests (any T/C) and in doses without a T/C. Other doses and runs of a compound stand elsewhere. T/C gives the treated animals as a percentage of the vehicle group. Some doses have a count of surviving animals in place of a T/C: the source holds a T/C of zero for them, seemingly a mark for toxic or unscored doses. Some doses without a T/C left all or most animals alive at the check, yet need not have been tolerated: survival well below the control is almost never listed, so the zero probably covers shortened survival too. Survivors were counted at the toxicity check, usually on the fifth day, unless a day is given; later deaths do not show. Schedules are NCI's codes, taken here to give the interval after Q, in days (D) or hours (H), and the number of doses after X. Counts like (3×) count equal records among those shown. Some doses were run more than once; the results are listed from low to high. For survival time, the PubChem record calls one and a half times the control and up active, and a quarter to a half above the control has no call in these data; cut-offs in other NCI protocols can differ. Some T/C values are followed by the survivors on the day toxicity was checked, most often the fifth; without a count, all were alive then.
Tested on: AKR/Lw mice, AKR lymphoma ip, median survival T/C
Assay: NCI In Vivo Anticancer Drug Screen. Data for tumor model Lymphoma AKR (Transplanted) (intraperitoneal) in AKR/Lw mice
Settings: T/C endpoint: median survival time, higher T/C = longer survival
Protocol: The antitumor activity of compounds was measured in mice bearing transplantable tumors. Survival or tumor size were measured and the results are expressed as the measurement made in the treated group (T) divided by the measurement made in the vehicle treated control group (C). The tumor model used in this assay is Lymphoma AKR (Transplanted) (intraperitoneal) in AKR/Lw mice

[1] = dose: 0.5 mg/kg/injection, schedule: Q04DX003 (ip), vehicle: saline
[2] = dose: 2.0 mg/kg/injection, schedule: Q04DX003 (ip), vehicle: saline
[3] = dose: 4.0 mg/kg/injection, schedule: Q04DX003 (ip), vehicle: saline
[4] = dose: 8.0 mg/kg/injection, schedule: Q01DX009 (ip), vehicle: saline
[5] = dose: 10.0 mg/kg/injection, schedule: Q07DX003 (ip), vehicle: saline
[6] = dose: 12.5 mg/kg/injection, schedule: Q01DX001 (ip), vehicle: saline
[7] = dose: 16.0 mg/kg/injection, schedule: Q04DX003 (ip), vehicle: saline
[8] = dose: 20.0 mg/kg/injection, schedule: Q07DX003 (ip), vehicle: saline
[9] = dose: 25.0 mg/kg/injection, schedule: Q07DX003 (ip), vehicle: saline
[10] = dose: 32.0 mg/kg/injection, schedule: Q04DX003 (ip), vehicle: saline
[11] = dose: 35.0 mg/kg/injection, schedule: Q01DX001 (ip), vehicle: saline
[12] = dose: 40.0 mg/kg/injection, schedule: Q01DX001 (ip), vehicle: saline
[13] = dose: 50.0 mg/kg/injection, schedule: Q01DX001 (ip), vehicle: saline

## O=NN(CCCl)C(=O)NCCCl
dose: 0.25 mg/kg/injection, schedule: Q04DX003 (ip), vehicle: saline
  survivor count: 10 of 10
dose: 0.5 mg/kg/injection, schedule: Q01DX009 (ip), vehicle: saline
  T/C: 107 [8 of 10 alive], 118 [9 of 10 alive], 121, 127 % of control
[1]
  T/C: 90, 102 [9 of 10 alive], 113 % of control
  survivor count: 10 of 10
dose: 1.0 mg/kg/injection, schedule: Q01DX009 (ip), vehicle: saline, evaluated on day 45
  T/C: 121 % of control
dose: 1.0 mg/kg/injection, schedule: Q01DX009 (ip), vehicle: saline, evaluated on day 60
  T/C: 104, 106, 112, 161 % of control
dose: 1.0 mg/kg/injection, schedule: Q01DX009 (ip), vehicle: saline
  survivor count: 10 of 10
dose: 1.0 mg/kg/injection, schedule: Q04DX003 (ip), vehicle: saline, evaluated on day 45
  T/C: 112 % of control
dose: 1.0 mg/kg/injection, schedule: Q04DX003 (ip), vehicle: saline, evaluated on day 60
  T/C: 93, 94, 120 [9 of 10 alive], 127 % of control
dose: 1.0 mg/kg/injection, schedule: Q04DX003 (ip), vehicle: saline
  survivor count: 10 of 10
dose: 1.2 mg/kg/injection, schedule: Q04DX003 (ip), vehicle: saline
  survivor count: 9 of 10
dose: 1.5 mg/kg/injection, schedule: Q07DX003 (ip), vehicle: saline
  survivor count: 10 of 10
dose: 2.0 mg/kg/injection, schedule: Q01DX009 (ip), vehicle: saline, evaluated on day 45
  T/C: 113 and 128 % of control
dose: 2.0 mg/kg/injection, schedule: Q01DX009 (ip), vehicle: saline, evaluated on day 60
  T/C: 97, 100, 107, 109, 113, 141, 147 % of control
[2]
  T/C: 89, 97, 97 [9 of 10 alive], 105, 117, 138 % of control
  survivor count: 10 of 10 (2×)
dose: 3.0 mg/kg/injection, schedule: Q04DX003 (ip), vehicle: saline
  T/C: 127 % of control
dose: 3.0 mg/kg/injection, schedule: Q07DX003 (ip), vehicle: saline
  survivor count: 5 of 10
dose: 3.12 mg/kg/injection, schedule: Q04DX003 (ip), vehicle: saline
  T/C: 134 % of control
dose: 4.0 mg/kg/injection, schedule: Q01DX009 (ip), vehicle: saline, evaluated on day 45
  T/C: 106, 126, 130 % of control
dose: 4.0 mg/kg/injection, schedule: Q01DX009 (ip), vehicle: saline, evaluated on day 60
  T/C: 95, 97, 97 [9 of 10 alive], 144 [9 of 10 alive], 147 % of control
[3]
  T/C: 97, 105, 108, 109, 113, 121, 137, 138 % of control
  survivor count: 10 of 10 (2×)
dose: 4.0 mg/kg/injection, schedule: Q04DX004 (ip), vehicle: saline
  T/C: 125 % of control
dose: 5.0 mg/kg/injection, schedule: Q01DX009 (ip), vehicle: saline
  survivor count: 9 of 10
dose: 5.0 mg/kg/injection, schedule: Q04DX003 (ip), vehicle: saline
  T/C: 130 % of control
dose: 5.0 mg/kg/injection, schedule: Q07DX003 (ip), vehicle: saline
  T/C: 92 (2×), 110, 113, 121, 126 % of control
dose: 6.0 mg/kg/injection, schedule: Q01DX001 (ip), vehicle: saline
  T/C: 102, 103, 107, 118 % of control
dose: 6.0 mg/kg/injection, schedule: Q01DX009 (ip), vehicle: saline
  survivor count: 10 of 10
dose: 6.0 mg/kg/injection, schedule: Q07DX003 (ip), vehicle: saline
  T/C: 128 % of control
dose: 6.25 mg/kg/injection, schedule: Q04DX003 (ip), vehicle: saline
  survivor count: 10 of 10
[4]
  T/C: 102 and 106 % of control
  survivor count: 9 of 10 and 10 of 10
dose: 8.0 mg/kg/injection, schedule: Q04DX003 (ip), vehicle: saline
  T/C: 94, 100, 111, 114 [9 of 10 alive], 125, 126 [9 of 10 alive], 136, 142 % of control
dose: 8.0 mg/kg/injection, schedule: Q04DX004 (ip), vehicle: saline
  T/C: 126 % of control
dose: 10.0 mg/kg/injection, schedule: Q01DX001 (ip), vehicle: saline, evaluated on day 5
  T/C: 109 % of control
dose: 10.0 mg/kg/injection, schedule: Q01DX001 (ip), vehicle: saline, evaluated on day 60
  T/C: 93, 103, 108, 109, 116, 118 (3×), 118 [7 of 10 alive], 129 % of control
dose: 10.0 mg/kg/injection, schedule: Q01DX009 (ip), vehicle: saline
  survivor count: 10 of 10
[5]
  T/C: 105, 115 (3×), 126 % of control [9 of 10 alive]
  survivor count: 10 of 10
dose: 12.0 mg/kg/injection, schedule: Q01DX001 (ip), vehicle: saline, evaluated on day 45
  T/C: 105 % of control
dose: 12.0 mg/kg/injection, schedule: Q01DX001 (ip), vehicle: saline, evaluated on day 60
  T/C: 100 and 105 % of control (2×)
[6]
  T/C: 126 % of control
  survivor count: 9 of 10
dose: 12.5 mg/kg/injection, schedule: Q04DX003 (ip), vehicle: saline
  survivor count: 10 of 10
dose: 15.0 mg/kg/injection, schedule: Q01DX001 (ip), vehicle: saline, evaluated on day 5
  T/C: 118 % of control
dose: 15.0 mg/kg/injection, schedule: Q01DX001 (ip), vehicle: saline, evaluated on day 7
  T/C: 97 % of control
dose: 15.0 mg/kg/injection, schedule: Q01DX001 (ip), vehicle: saline, evaluated on day 9
  T/C: 98 % of control
dose: 15.0 mg/kg/injection, schedule: Q01DX001 (ip), vehicle: saline, evaluated on day 11
  T/C: 124 % of control
dose: 15.0 mg/kg/injection, schedule: Q01DX001 (ip), vehicle: saline, evaluated on day 60
  T/C: 96 [7 of 10 alive], 100, 116, 118, 120, 133 % of control
dose: 15.0 mg/kg/injection, schedule: Q01DX001 (ip), vehicle: saline
  survivor count: 10 of 10
dose: 15.0 mg/kg/injection, schedule: Q07DX003 (ip), vehicle: saline
  T/C: 100, 102, 105 (2×), 121 [9 of 10 alive], 136 % of control
dose: 16.0 mg/kg/injection, schedule: Q01DX009 (ip), vehicle: saline
  survivor count: 10 of 10
[7]
  T/C: 111 and 128 % of control
  survivor count: 5 of 10 and 10 of 10
dose: 16.0 mg/kg/injection, schedule: Q04DX004 (ip), vehicle: saline
  survivor count: 10 of 10
dose: 20.0 mg/kg/injection, schedule: Q01DX001 (ip), vehicle: saline, evaluated on day 5
  T/C: 131 % of control
dose: 20.0 mg/kg/injection, schedule: Q01DX001 (ip), vehicle: saline, evaluated on day 60
  T/C: 96 [7 of 10 alive], 115 [9 of 10 alive], 116, 120, 125, 128, 131 % of control (3×)
dose: 20.0 mg/kg/injection, schedule: Q01DX001 (ip), vehicle: saline
  survivor count: 6 of 10
dose: 20.0 mg/kg/injection, schedule: Q01DX009 (ip), vehicle: saline
  survivor count: 9 of 10
[8]
  T/C: 105, 107, 136 % of control
  survivor count: 10 of 10
dose: 25.0 mg/kg/injection, schedule: Q01DX001 (ip), vehicle: saline, evaluated on day 5
  T/C: 88 % of control
dose: 25.0 mg/kg/injection, schedule: Q01DX001 (ip), vehicle: saline, evaluated on day 60
  T/C: 88, 103, 115, 115 [7 of 10 alive], 116, 117, 118 [9 of 10 alive], 131, 137 % of control (2×)
dose: 25.0 mg/kg/injection, schedule: Q01DX001 (ip), vehicle: saline
  survivor count: 7 of 10
[9]
  T/C: 92 [9 of 10 alive], 100, 102 % of control
  survivor count: 10 of 10
dose: 30.0 mg/kg/injection, schedule: Q01DX001 (ip), vehicle: saline, evaluated on day 7
  T/C: 144 % of control
dose: 30.0 mg/kg/injection, schedule: Q01DX001 (ip), vehicle: saline, evaluated on day 9
  T/C: 97 % of control
dose: 30.0 mg/kg/injection, schedule: Q01DX001 (ip), vehicle: saline, evaluated on day 11
  T/C: 139 % of control
dose: 30.0 mg/kg/injection, schedule: Q01DX001 (ip), vehicle: saline, evaluated on day 60
  T/C: 120 and 133 % of control (2×)
dose: 30.0 mg/kg/injection, schedule: Q01DX001 (ip), vehicle: saline
  survivor count: 1 of 10, 7 of 10, 9 of 10
dose: 30.0 mg/kg/injection, schedule: Q14DX003 (ip), vehicle: saline, evaluated on day 5
  T/C: 144 % of control
dose: 30.0 mg/kg/injection, schedule: Q14DX003 (ip), vehicle: saline, evaluated on day 60
  T/C: 144 % of control [9 of 10 alive]
dose: 32.0 mg/kg/injection, schedule: Q01DX009 (ip), vehicle: saline
  survivor count: 10 of 10
[10]
  T/C: 87 % of control [9 of 10 alive]
  survivor count: 2 of 10, 6 of 10, 10 of 10
[11]
  T/C: 133 % of control (2×)
  survivor count: 6 of 10, 9 of 10, 10 of 10
[12]
  T/C: 116, 129, 145 % of control
  survivor count: 6 of 10, 8 of 10, 9 of 10
dose: 40.0 mg/kg/injection, schedule: Q01DX009 (ip), vehicle: saline
  survivor count: 7 of 10
dose: 48.0 mg/kg/injection, schedule: Q01DX001 (ip), vehicle: saline
  survivor count: 10 of 10
[13]
  T/C: 88 [9 of 10 alive], 104 [8 of 10 alive], 121 % of control
  survivor count: 7 of 10 and 10 of 10
dose: 50.0 mg/kg/injection, schedule: Q04DX003 (ip), vehicle: water
  survivor count: 9 of 10
dose: 64.0 mg/kg/injection, schedule: Q04DX003 (ip), vehicle: saline
  survivor count: 6 of 10
dose: 75.0 mg/kg/injection, schedule: Q01DX001 (ip), vehicle: saline
  survivor count: 7 of 10
dose: 80.0 mg/kg/injection, schedule: Q01DX009 (ip), vehicle: saline
  survivor count: 1 of 10
dose: 100.0 mg/kg/injection, schedule: Q01DX001 (ip), vehicle: saline
  survivor count: 0 of 10, 5 of 10, 6 of 10
dose: 200.0 mg/kg/injection, schedule: Q01DX001 (ip), vehicle: saline
  survivor count: 4 of 10

Reference: PubChem BioAssay AID190 (DTP/NCI, 2004)
